What was measured:
[1] = Lipophilicity, log D of compound at pH 7.4; conditions: buffer
[2] = organism: Homo sapiens; assay: Selectivity ratio of IC50 for sPLA2-2A (unknown origin) to IC50 for sPLA2-10 (unknown origin)

## NC(=O)c1cc2ccc(OC(F)(F)F)cc2n1-c1cccc(CCC(=O)O)c1
[1]
  logD: 1.2
[2]
  Ratio IC50: 12

Source: ChEMBL document CHEMBL4196112, “Design of Selective sPLA2-X Inhibitor (-)-2-{2-[Carbamoyl-6-(trifluoromethoxy)-1H-indol-1-yl]pyridine-2-yl}propanoic Acid” (ACS Med Chem Lett, 2018)
